# Earlier results as cited in patent publication US20110275602A1, “PHARMACEUTICAL ASSOCIATION, COMPOSITIONS FOR TOPICAL USE, FORMS OF DOSAGE AND METHOD OF TREATMENT OF ACUTE OR CHRONIC OTITIS IN PET ANIMALS” (priority 2007, published 2011).
# At least one structure is not confirmed: it was looked up by name or label, or the drawing left a doubt.
# Test system: otorrhea
# Settings: literature
smiles,measurement,value
CC1COc2c(N3CCN(C)CC3)c(F)cc3c(=O)c(C(=O)O)cn1c23 (stereo not shown) [ofloxacin],microbiological cure,81.8%
